Source: PMC13049129
No constants are given. Whether binding was seen depends on the method and setting. Binding seen in cells or lysates may run through a third protein. A yes stands for co-enrichment or nearness to the bait. Other partners may have been found. Tags and fused reporters may be left off the sequences shown.

Chains of the proteins cited; added tags and fusions are not shown.
UniProt Q13242: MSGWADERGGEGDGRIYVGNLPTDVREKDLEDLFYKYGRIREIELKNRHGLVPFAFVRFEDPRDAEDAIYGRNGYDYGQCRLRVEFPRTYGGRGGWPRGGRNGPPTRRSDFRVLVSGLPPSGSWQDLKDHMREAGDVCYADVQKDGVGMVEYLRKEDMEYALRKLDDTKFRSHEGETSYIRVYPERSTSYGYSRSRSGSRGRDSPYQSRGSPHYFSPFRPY

Target: T1, recombinant zebrafish Endouc fused with Flag tag (Endouc-Flag), produced in Sf21 insect cells (zebrafish) (UniProt Q1LUM3)
T1 sequence: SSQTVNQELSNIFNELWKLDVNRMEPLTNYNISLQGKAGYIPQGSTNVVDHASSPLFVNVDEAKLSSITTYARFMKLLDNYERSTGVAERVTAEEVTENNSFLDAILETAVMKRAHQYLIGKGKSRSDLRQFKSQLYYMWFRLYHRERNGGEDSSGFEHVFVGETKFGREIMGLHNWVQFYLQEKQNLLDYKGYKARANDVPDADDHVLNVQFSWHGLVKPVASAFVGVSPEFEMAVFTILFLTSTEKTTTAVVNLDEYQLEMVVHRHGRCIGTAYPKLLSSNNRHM
Assay: affinity purification with mass spectrometry; Endouc-Flag produced in Sf21 mixed with whole protein extracts of HEK293T cells in IP lysis buffer, anti-FLAG M2-agarose beads overnight, 6 washes, elution with 0.5 mg/mL 3xFlag peptide at 4°C, SDS-PAGE, gel slices, LC-MS/MS; pull-down without Endouc-Flag as negative control

binding: binds
Substance: Srsf9, endogenous in HEK293T total lysate (from UniProt Q13242 1-221)
